Results from paper PMC6925144, “A prospective compound screening contest identified broader inhibitors for Sirtuin 1” (Scientific Reports, 2019).
Whole data set: some 3,200 compounds, median “TSA(with NAD+) / Primary screening (TSA) / delta Tm (K)” near -0.04, cut for the highest 2% near 0.37. Some of the results follow.

Amino acid sequences for entries named in this document (tags omitted). Residues count along the entry.
UniProt Q96EB6, 2-747 limits assumed: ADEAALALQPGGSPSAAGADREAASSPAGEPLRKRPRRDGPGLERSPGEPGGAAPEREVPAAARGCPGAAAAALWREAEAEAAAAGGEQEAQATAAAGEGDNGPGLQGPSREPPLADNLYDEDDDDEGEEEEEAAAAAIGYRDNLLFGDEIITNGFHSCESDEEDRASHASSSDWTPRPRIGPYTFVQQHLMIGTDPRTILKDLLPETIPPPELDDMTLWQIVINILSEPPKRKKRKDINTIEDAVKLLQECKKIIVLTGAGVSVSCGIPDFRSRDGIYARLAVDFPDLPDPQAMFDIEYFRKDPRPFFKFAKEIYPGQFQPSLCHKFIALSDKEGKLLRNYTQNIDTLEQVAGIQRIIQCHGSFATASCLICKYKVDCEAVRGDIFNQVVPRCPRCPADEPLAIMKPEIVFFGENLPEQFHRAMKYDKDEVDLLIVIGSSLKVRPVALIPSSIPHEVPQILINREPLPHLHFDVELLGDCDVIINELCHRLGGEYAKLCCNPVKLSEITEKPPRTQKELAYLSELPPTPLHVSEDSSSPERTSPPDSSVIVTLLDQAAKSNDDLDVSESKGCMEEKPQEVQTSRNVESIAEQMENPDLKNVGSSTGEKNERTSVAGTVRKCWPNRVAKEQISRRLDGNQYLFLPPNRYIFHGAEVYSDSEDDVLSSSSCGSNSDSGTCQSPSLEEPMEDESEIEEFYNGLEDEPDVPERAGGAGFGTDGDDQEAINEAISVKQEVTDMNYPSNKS

target: NAD-dependent deacetylase Sirtuin 1 (human, UniProt Q96EB6); assay: primary screen, delta tm; design: single well (n = 1, as 'the same TSA'); settings: 10 µM

SMILES | TSA(with NAD+) / Primary screening (TSA) / delta Tm (K)
COc1cccc(CC(=O)N2CCC(O)(C(F)(F)F)C2)c1 (centres unmarked) | -0.11 K
O=C(CCc1nc2ccccc2s1)Nc1cccc(S(=O)(=O)NCc2ccco2)c1 | -0.06 K
COc1cc(CN(C)C(=O)c2ccc3c(c2)C(=O)N(C)C3=O)ccc1OCc1ccccc1 | -0.11 K
COc1ccccc1C(=O)NC(CCSC)C(=O)Nc1ccc(C23CC4CC(CC(C4)C2)C3)cc1 (centres unmarked) | -0.11 K
O=C(C1=C(O)C(=O)N(CCCN2CCOCC2)C1c1ccco1)c1ccc(F)cc1 (centres unmarked) | -0.05 K
COc1ccc(OC)c(C2C(C(=O)/C=C/c3ccco3)=C(O)C(=O)N2CCCN2CCOCC2)c1 (centres unmarked) | -0.19 K
COc1ccc(S(=O)(=O)Nc2ccc(C(=O)NCC(=O)NCc3nnc4ccccn34)cc2)cc1 | -0.03 K
Cc1ccc(C(=O)C2=C(O)C(=O)N(CCCN3CCOCC3)C2c2ccccn2)o1 (centres unmarked) | -0.14 K
Cc1cc(C#N)ccc1S(=O)(=O)N1CCC(N)C1 (centres unmarked) | 0.05 K
O=C1/C(=C\c2ccc(Br)cc2F)COc2ccccc21 | -0.18 K
O=c1cc(N2CCC(C(O)c3ccccc3)CC2)nc2ccccn12 (centres unmarked) | -0.01 K
Oc1ccc(/C=N/c2cccc3cnccc23)c(O)c1O | -0.14 K
O=C(CN1C(=O)NC2(CCc3ccccc32)C1=O)NC(c1ccccc1)c1ccc(Cl)cc1 (centres unmarked) | 0.01 K
CN(CCCNC(=O)c1ccc2ccccc2c1)Cc1ccccc1 | -0.02 K
O=[N+]([O-])c1cnn(-c2ncnc3c2cnn3-c2ccccc2)c1 | -0.06 K
O=C(COC(=O)CON=C1c2ccccc2-c2ccccc21)Nc1ccc2c(c1)OCO2 | 0.36 K
CC1CC(=O)Nc2ccccc2N1C(=O)c1ccc2ccccc2c1 (centres unmarked) | 0.06 K
Cn1ncc2c(N3CCN(Cc4ccc5c(c4)CCO5)CC3)ncnc21 | -0.13 K
CCC(C)(N)CN (centres unmarked) | -0.03 K
CC1CC(C(=O)Nc2ncc(C(N)=O)s2)CCO1 (centres unmarked) | -0.02 K
CCOc1ccc(/C=C(/C#N)C(=O)c2c[nH]c3cc(F)ccc23)cc1 | -0.03 K
COCCNc1nnc(SCc2cnc(-c3ccccc3)s2)s1 | -0.04 K
NCC(N)C1CCC1 (centres unmarked) | -0.14 K
CC(C)C(OC(=O)Cc1coc2cc(O)ccc12)C(=O)NC(N)=O (centres unmarked) | -0.05 K
NCCCC(N)C(=O)O (centres unmarked) | -0.08 K

Grouped by structure, the entries above containing two or more sulfur atoms
SMILES | TSA(with NAD+) / Primary screening (TSA) / delta Tm (K)
O=C(CCc1nc2ccccc2s1)Nc1cccc(S(=O)(=O)NCc2ccco2)c1 | -0.06 K
COCCNc1nnc(SCc2cnc(-c3ccccc3)s2)s1 | -0.04 K

The list goes on:

SMILES | TSA(with NAD+) / Primary screening (TSA) / delta Tm (K)
O=C(Nc1ccc(OC(F)F)c(Cc2ccccc2)c1)C1=COCCO1 | -0.08 K
COC(=O)c1ncccc1N1CCC(C(O)c2ccccc2)CC1 (centres unmarked) | -0.21 K
O=C(O)Cc1cc(F)cc2c1OCOC2 | -0.23 K
O=C1NC(=S)N/C1=C\c1cc(Br)ccc1O | -0.03 K
NC(=O)c1cc2sc3ccccc3c2s1 | 0.01 K
Cn1c(SCc2cccc(C#N)c2)nc2ccsc2c1=O | -0.23 K
Nc1cccc(N2C(=O)c3ccccc3C2=O)c1 | -0.09 K
COC(=O)NCC(=O)NCc1ccc(Cn2cnc3ccccc32)cc1 | 0.07 K
O=C(NC12CC3CC(CC(C3)C1)C2)c1ccccc1C(=O)OCC(=O)N1CCc2ccccc21 | -0.13 K
O=C(O)CSCC(=O)O | -0.16 K
NC(=O)C1CCN(Cc2nc3c(Br)cc(Br)cc3c(=O)[nH]2)CC1 | 0.08 K
O=C(CNCc1ccco1)Nc1ccccc1C(F)(F)F | -0.16 K
O=C1NC(=S)NC(=O)C1=Cc1cccnc1 | -0.14 K
Cc1ccc(N(C)S(=O)(=O)c2cccc(C(=O)Nc3cc(F)ccc3C)c2)cc1 | -0.01 K
O=C(O)CCc1c(-c2ccc(F)cc2)[nH]c2ccccc12 | -0.08 K
COc1ccc2c(c1)CCCC2CNC(=O)c1cc(C(N)=O)cs1 (centres unmarked) | -0.12 K
O=C(CN1CCN(Cc2ccc(Br)s2)CC1)Nc1cc(Cl)ccc1-n1cncn1 | -0.05 K
COCCOCCN | 0.01 K
CN(Cc1ccc(C(=O)NCC(F)(F)F)cc1)Cc1nc2c(cnn2-c2ccccc2)c(=O)[nH]1 | -0.08 K
CC1CCc2c(sc3ncnc(N4CCN(S(=O)(=O)c5ccc6c(c5)OCCO6)CC4)c23)C1 (centres unmarked) | 0.18 K
N#CCNC(=O)c1ccc2[nH]c3c(c2c1)CCCC3 | 0.06 K
CCc1nn2c(=O)cc(COC(=O)C(O)(c3ccccc3)c3ccccc3)nc2s1 | -0.05 K
COc1cccc(C(=O)OC(C)C(=O)Nc2ccc(C(N)=O)cc2)c1OC (centres unmarked) | 0.15 K
CCCOc1ccc2cc(C(=O)c3ccc(N(C)S(C)(=O)=O)cc3)oc2c1 | -0.11 K
COc1ccc(N)c(OC)c1 | -0.18 K
